System: soil-groundwater slurries
Test: Anaerobic microcosm biodegradation (nitrate-reducing to methanogenic)
Conditions: for concentration after approximately 300 days of incubation: sulfate-reducing

With `c1ccccc1` [Benzene, benzene] the “concentration after approximately 300 days of incubation” value (Treatment 13, low concentration, with isobutanol, detection limit) was under 0.50 µM, the “concentration after approximately 300 days of incubation” value (Treatment 14, low concentration, with ethanol) was “approximately 0.85 μM” and the “biodegradation throughout 162 days of incubation” value (higher BTEX concentration treatments without isobutanol, any anaerobic conditions) was “no substantial benzene biodegradation”.
With `Cc1ccccc1` [Toluene, toluene] the “time to degradation below detection limits” value (high concentration, without alcohols, nitrate-reducing, iron-reducing and sulfate-reducing conditions) was at most 80 days and the “biodegradation relative to the controls” value (unamended high concentration microcosms (Treatment 2)) was “no measurable toluene concentration decreasing trend”.

From patent publication US20110283604A1, “BIODEGRADATION OF RENEWABLE HYDROCARBON FUEL BLENDS” (BUTAMAX(TM) ADVANCED BIOFUELS LLC, priority 2010, published 2011)
